According to article PMC7819943, “Rice protein-binding microarrays: a tool to detect cis-acting elements near promoter regions in rice”:
The other results are listed elsewhere or left out.

The chains behind the UniProt entries cited, without tags or fusion partners.
UniProt Q0JBA9, entry or part of it: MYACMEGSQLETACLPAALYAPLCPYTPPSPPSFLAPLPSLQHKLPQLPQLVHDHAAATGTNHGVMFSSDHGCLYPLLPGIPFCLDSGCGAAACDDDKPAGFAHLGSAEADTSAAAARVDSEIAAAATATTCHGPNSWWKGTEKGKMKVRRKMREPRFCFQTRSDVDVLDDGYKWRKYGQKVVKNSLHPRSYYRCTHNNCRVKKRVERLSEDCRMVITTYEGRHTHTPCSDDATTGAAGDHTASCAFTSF

These sequences were tested against OsWRKY34 (Oryza sativa, UniProt Q0JBA9 1-250) (assay: protein-binding microarray (RPBM); PBS, 2% BSA, 51.3 ng/ul salmon testes DNA, 50 uM zinc acetate, 200 nM TF, 25 C, 1 h; high values mean tight binding). Details: protein: recombinant; tags: N-terminal polyhistidine and DsRed monomer fusion (pET32a); label: CyDye5-dUTP incorporated in the synthesized complementary strand; 3' TTTTT single-stranded linker to array surface; dsDNA, one strand shown.
How it was run: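 For the binding signal, per-feature fluorescence intensity was read in arbitrary units on an Axon 4000B scanner. Before scanning, a 2% BSA-blocked custom Agilent array made double-stranded with Cy5-dUTP was washed after 1 h at 25 °C with 200 nM protein and 50 µM zinc acetate. The proteins were Ni–NTA-purified transcription factors with N-terminal polyhistidine and DsRed fusions, expressed in E. coli BL21-CodonPlus.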

Sequence | binding signal
GATAGTTGAGGGACGCCGGACAAACTTTTTCCGCTTATTTCGGAGTCACCTAGTGCAG | 8120 fluorescence intensity (a.u.)
TAGACCTTTTTACGTTGCAACTTACTCTTACTTATATTAACGGAGTCACCTAGTGCAG | 10700 fluorescence intensity (a.u.)
ACCACGTGTGCGGCCACCTTAAGTCAGCCATATATGAAACCGGAGTCACCTAGTGCAG | 8450 fluorescence intensity (a.u.)
TAGTCAAAGTCAAACTATTCTAAGTTTGACTAATTATGTACGGAGTCACCTAGTGCAG | 12100 fluorescence intensity (a.u.)
ACACACACACACACACACACACACACACACATATATATATCGGAGTCACCTAGTGCAG | 8300 fluorescence intensity (a.u.)
GAACTCGTTACATTGCTCTATGTGTGAAATTTATTTACGTCGGAGTCACCTAGTGCAG | 9780 fluorescence intensity (a.u.)
ACCCGAAGCTCTCTGCTGCTGCCGCTGCCGCCGCGCCGCGCGGAGTCACCTAGTGCAG | 8920 fluorescence intensity (a.u.)
TATTTTTAATTCTGAATTTCAGTTATTTCCTAATTGTATTCGGAGTCACCTAGTGCAG | 8290 fluorescence intensity (a.u.)
TCTTCGTCTCATCTGTTGCATCTAGTCCGTTCTAATCTCTCGGAGTCACCTAGTGCAG | 8900 fluorescence intensity (a.u.)
ATTGTGTGTTCTTTTTGCTTAATTAAACTTACTCTTTCTGCGGAGTCACCTAGTGCAG | 11900 fluorescence intensity (a.u.)
ACAGCTACGTTATGTTTGTTCCGATTCTCACGAAAGCAGCCGGAGTCACCTAGTGCAG | 8310 fluorescence intensity (a.u.)
ATAGCCAACTACTAGCTCCAATTCATATATAGCCAATCTACGGAGTCACCTAGTGCAG | 8060 fluorescence intensity (a.u.)
CGCGCGGTCGAGGAGGGTGGGGCCGCCGCGCTCACCTCCGCGGAGTCACCTAGTGCAG | 8480 fluorescence intensity (a.u.)
CTCCATTTACTCTACACATGCCCGTGTTCATTCATGCAAACGGAGTCACCTAGTGCAG | 9210 fluorescence intensity (a.u.)
CCCTGGCCCTTGCTTTGATCCTAATGATCCCTATGCCCCGCGGAGTCACCTAGTGCAG | 14400 fluorescence intensity (a.u.)
GGAGGTCAGGATTGTTGTGGTGGGGAATTGGAGGGAAATGCGGAGTCACCTAGTGCAG | 19600 fluorescence intensity (a.u.)
CAACCTTGGCTCATGCCATTCAACCACCATTTTCTATTATCGGAGTCACCTAGTGCAG | 9460 fluorescence intensity (a.u.)
CCTACCAGCAAGCACCCACCACCAGTCCACTCCACAGTCTCGGAGTCACCTAGTGCAG | 10500 fluorescence intensity (a.u.)
TCGGTTTTTACTGCTTCCATCAGACGTCGGTCTGTTTTCGCGGAGTCACCTAGTGCAG | 9470 fluorescence intensity (a.u.)
CTTGACAGCTTATAGTGCAAATCCTGTGGGTTCCCTTCATCGGAGTCACCTAGTGCAG | 8090 fluorescence intensity (a.u.)
TCATTGTTCAGCCTGTTAATCGATCGCTTTAGCCTTTCATCGGAGTCACCTAGTGCAG | 8620 fluorescence intensity (a.u.)

Some of the entries so far, field by field.
CCTACCAGCAAGCACCCACCACCAGTCCACTCCACAGTCTCGGAGTCACCTAGTGCAG
  binding signal = 10500 fluorescence intensity (a.u.)
TCGGTTTTTACTGCTTCCATCAGACGTCGGTCTGTTTTCGCGGAGTCACCTAGTGCAG
  binding signal = 9470 fluorescence intensity (a.u.)
CTTGACAGCTTATAGTGCAAATCCTGTGGGTTCCCTTCATCGGAGTCACCTAGTGCAG
  binding signal = 8090 fluorescence intensity (a.u.)

(continued)

Sequence | binding signal
TGGGGAGAGGCTAGGTTGTTAGCTGCAGATTCATTTTATCCGGAGTCACCTAGTGCAG | 8230 fluorescence intensity (a.u.)
TGTAGTGGGGCCTGTCTGTAAATATCATTGTGCTTTAAGCCGGAGTCACCTAGTGCAG | 10500 fluorescence intensity (a.u.)
TTCTCTTGTTCTGTTTCTTGGACTGGTCCACTGTTTTTGGCGGAGTCACCTAGTGCAG | 11100 fluorescence intensity (a.u.)
AATTTTTTCTAGATCTGACACCACATTCTGGTCAAATTCACGGAGTCACCTAGTGCAG | 9010 fluorescence intensity (a.u.)
CCCATTGGCCCACACCGCCAGGTCACTCCACATCCCAACCCGGAGTCACCTAGTGCAG | 10200 fluorescence intensity (a.u.)
GCTTACCTCTCATGAACTATTGGGCCTTAAAGTCTAATAACGGAGTCACCTAGTGCAG | 9180 fluorescence intensity (a.u.)
TCTCCGCACGCCGTCCTGTCAGTCGCGACCCACTCCATCGCGGAGTCACCTAGTGCAG | 8430 fluorescence intensity (a.u.)
AATTTTACAACCATTTATTTCTAATCGATTTCGTCATTTGCGGAGTCACCTAGTGCAG | 9570 fluorescence intensity (a.u.)
TCCCCAAACATTCCATTCTTTTTTCGTTTCCAAAGTTTGTCGGAGTCACCTAGTGCAG | 8610 fluorescence intensity (a.u.)
CCATCAATCCACCGCCCCGCCGCGTCTTCTCCTCGTCGGCCGGAGTCACCTAGTGCAG | 8490 fluorescence intensity (a.u.)
AAACTAGTCAGTAGTCACAACACACCTAACGTTTCTACACCGGAGTCACCTAGTGCAG | 9030 fluorescence intensity (a.u.)
GTAGCTTTTATCGTTGTCAGCCCGCATTTAAAACTTTAATCGGAGTCACCTAGTGCAG | 10600 fluorescence intensity (a.u.)
TTAAAGGGTAGTGGGTCTTTTGGGGTGGAGTGGAGCTGTGCGGAGTCACCTAGTGCAG | 8480 fluorescence intensity (a.u.)
TCTAGCGTACAGATGCTGCAACCGTTTTGTTTGTTTCTCCCGGAGTCACCTAGTGCAG | 14200 fluorescence intensity (a.u.)
GCCCAAACCAACCTGATCTCGAGAGGCCATGGCCATCATCCGGAGTCACCTAGTGCAG | 8060 fluorescence intensity (a.u.)
TATGCTTATTCTATTATTCCATGCTTTGCTTTTGTGCAGTCGGAGTCACCTAGTGCAG | 9940 fluorescence intensity (a.u.)
TCCTTCCCGTGTATAAATAGCCCAACAATACACCACTGTTCGGAGTCACCTAGTGCAG | 8140 fluorescence intensity (a.u.)
GTGTCTTGTGCGTTTGCTCTCTCGCGAACCATTCCACAGACGGAGTCACCTAGTGCAG | 8380 fluorescence intensity (a.u.)
CATCGCTGCGCGCACCGAGTCCACATGCACCGGCTCTGACCGGAGTCACCTAGTGCAG | 8050 fluorescence intensity (a.u.)
CCGTATATGTCTGTGTCGTGTCGTTGTCACTGTGTGGTGACGGAGTCACCTAGTGCAG | 12300 fluorescence intensity (a.u.)
GGAAGGGCCTCTGGGTGTAGATTTTTCAGATAGTTTCTGCCGGAGTCACCTAGTGCAG | 10000 fluorescence intensity (a.u.)
